Test results as given in the supplement of paper PMC7125110.
± gives the standard error. Many entries were measured with a wide error.

B1: glmS ribozyme (parent)
chain: AUAAAAGCGCCAGAACUACAGAAAUGUAGUUGACGAGGAGGAGGUUUAUCGAAUUUUCGGCGGAUGCCUCCAAA

Variants of: B1
Test: self-cleavage kobs at 2500 uM GlcN6P; higher = faster cleavage; RNA array
Conditions: with glucosamine-6-phosphate
Procedure, shortened: (§1)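 Ribozyme variants carrying barcodes were transcribed in situ on sequenced MiSeq chips by E. coli RNA polymerase and tracked at 37 °C with a hybridised Cy3 probe. They were exposed to 40 μM to 10 mM glucosamine-6-phosphate in HEPES/KCl/Mg(OAc)2 buffer. kobs came from exponential decay fits of normalised per-tile medians, and kcat and KM from weighted Michaelis–Menten fits.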

Variant	self-cleavage kobs at 2500 uM GlcN6P
A6U A12U C70U C71G	2.96e-05 ± 2.4e-05 s⁻¹
A6U A15C C67U	3.22e-05 ± 2.7e-05 s⁻¹
A6U C8G A33U C34G U69G	5.96e-05 ± 4e-05 s⁻¹
A6U C16U A39U	1.93e-05 ± 1.5e-05 s⁻¹
A6U C67U C70G	3.55e-05 ± 3e-05 s⁻¹
A6U G62C G63A C70A	3.2e-05 ± 3.1e-05 s⁻¹
G7C C8G C50G U55A	4.98e-05 ± 3.3e-05 s⁻¹
C8A C11U A14G C50G	6.13e-05 ± 3.2e-05 s⁻¹
C8A G13A G37U G59C C68G	5.27e-05 ± 3e-05 s⁻¹
C8U G62A C70U	3.95e-05 ± 2e-05 s⁻¹
C8U U47G G63A C70A	3.2e-05 ± 3e-05 s⁻¹
G9C G13U C50G U55C	0.000131 ± 8.1e-05 s⁻¹
G9U G32C C34G C58U C68G	3.05e-05 ± 2.5e-05 s⁻¹
C10A C61G A64G C68G	4.89e-05 ± 3.2e-05 s⁻¹
C10A C68A	2.52e-05 ± 1.4e-05 s⁻¹
C10G A36U C70G	1.88e-05 ± 1.8e-05 s⁻¹
C10U G37U C67U U69G	2.98e-05 ± 1.7e-05 s⁻¹
C10U U55G	2.66e-05 ± 1.6e-05 s⁻¹
C11U A33G C50U	3.01e-05 ± 2.9e-05 s⁻¹
C11U U65G C67G	8.37e-05 ± 5.1e-05 s⁻¹
A12C A36C U54G	0.00012 ± 6.3e-05 s⁻¹
A12C U31A U55C C70U	2.72e-05 ± 2e-05 s⁻¹
A12G G32A	1.26e-05 ± 1.1e-05 s⁻¹
A12G U46G U54C C67U	3.89e-05 ± 2.1e-05 s⁻¹
A12U A52C C67A	2.77e-05 ± 2.4e-05 s⁻¹
A12U C70G	0.00294 ± 0.0016 s⁻¹

Variant	self-cleavage kobs at 2500 uM GlcN6P
A12U U30A U31A G37C	2.85e-05 ± 2.6e-05 s⁻¹
G13A C70A	3e-05 ± 1.6e-05 s⁻¹
G13A U46C	4.56e-05 ± 2.6e-05 s⁻¹
G13C C58G	1.25e-05 ± 9e-06 s⁻¹
G13U A14U U69A	3.02e-05 ± 2.5e-05 s⁻¹
G13U C34A A36U G38U U69G	2.96e-05 ± 2.9e-05 s⁻¹
G13U U56A U65A C71U	2.22e-05 ± 2.2e-05 s⁻¹
A14C A48U	2.77e-05 ± 2.3e-05 s⁻¹
A14C C67U C70U	3.39e-05 ± 1.7e-05 s⁻¹
A14G A39G	0.0733 ± 0.037 s⁻¹
A14G C50U U55C	2.51e-05 ± 1.7e-05 s⁻¹
A14G G29C U47G	2.09e-05 ± 1.8e-05 s⁻¹
A14G G32A G60A C61A C67A C70U	5.93e-05 ± 3.8e-05 s⁻¹
A14U A52U C61A C68U	2.33e-05 ± 2.2e-05 s⁻¹
A14U U57G	2.47e-05 ± 2e-05 s⁻¹
A15C C16G G66C	3e-05 ± 2.3e-05 s⁻¹
A15C C58U C61A	4.64e-05 ± 2.5e-05 s⁻¹
A15G G59U C67U	3.17e-05 ± 2.9e-05 s⁻¹
A15U G32U G40C	2.53e-05 ± 2.5e-05 s⁻¹
C16A G41U	3.4e-05 ± 2.1e-05 s⁻¹
C16A G63U U69A	2.46e-05 ± 1.9e-05 s⁻¹
C16A U46A U55A	1.98e-05 ± 1.6e-05 s⁻¹
C16G U56A C71G	2.09e-05 ± 1.8e-05 s⁻¹
C16U A39U A64C	5.12e-05 ± 3e-05 s⁻¹
C16U G32A A33G C58U C70G	3.23e-05 ± 3.2e-05 s⁻¹
C16U U55G A64U	2.84e-05 ± 2.6e-05 s⁻¹

Variant	self-cleavage kobs at 2500 uM GlcN6P
C16U U56G C68G	2.78e-05 ± 2e-05 s⁻¹
G26U C50G A52C U56G G66C C67U C71U	9.98e-05 ± 7.4e-05 s⁻¹
G29A C68A	2.08e-05 ± 1.5e-05 s⁻¹
G29C A33G C68G	4.76e-05 ± 3.5e-05 s⁻¹
G29U A52U	3.75e-05 ± 2.9e-05 s⁻¹
G29U C50G	4.52e-05 ± 2.7e-05 s⁻¹
G29U G38U C68A	4.37e-05 ± 3.5e-05 s⁻¹
G29U U46G C58G C67A	6.82e-05 ± 4.3e-05 s⁻¹
U30A A36C C71G	3.3e-05 ± 2.7e-05 s⁻¹
U30A A52U C67G	3.78e-05 ± 1.9e-05 s⁻¹
U30A A53U C70U	0.000196 ± 0.00014 s⁻¹
U31A A33U	2.37e-05 ± 1.5e-05 s⁻¹
G32A C67G C70U	2.78e-05 ± 2.5e-05 s⁻¹
A33C C50G U54A C61U	3.79e-05 ± 2e-05 s⁻¹
A33G C70U C71U	3.74e-05 ± 3.3e-05 s⁻¹
A33G G38U U65A C70G	4.32e-05 ± 2.6e-05 s⁻¹
A33U A39U U47G	4.21e-05 ± 3e-05 s⁻¹
C34G C68A	3.1e-05 ± 2.5e-05 s⁻¹
G35A C50U C67G C70U	3.74e-05 ± 3.5e-05 s⁻¹
G35C C50G G60U	2.96e-05 ± 2e-05 s⁻¹
A36C G38A A53U C68G	4.36e-05 ± 3.2e-05 s⁻¹
A36U C58G C68A C70U	3.31e-05 ± 3.2e-05 s⁻¹
A36U G51U C68G	4.81e-05 ± 3.2e-05 s⁻¹
A36U U49A	2.93e-05 ± 1.7e-05 s⁻¹
G37C A39G U54A	2.43e-05 ± 1.7e-05 s⁻¹
G37C U55A G62A	2.39e-05 ± 1.8e-05 s⁻¹

Variant	self-cleavage kobs at 2500 uM GlcN6P
G37U U49G U69G	3.36e-05 ± 1.8e-05 s⁻¹
A39C U49G U54C	2.48e-05 ± 2.2e-05 s⁻¹
G40C G41C	1.76e-05 ± 1.6e-05 s⁻¹
A42C G66U	1.86e-05 ± 1.2e-05 s⁻¹
A42G C61A C67A	6.94e-05 ± 4.2e-05 s⁻¹
A42U A52U	1.55e-05 ± 1.3e-05 s⁻¹
G43A U54C	3.63e-05 ± 2.2e-05 s⁻¹
G43U C68U C71A	3.13e-05 ± 2.4e-05 s⁻¹
G44A A52G	3.02e-05 ± 1.8e-05 s⁻¹
G44C G66A C71U	3.9e-05 ± 2.1e-05 s⁻¹
U45A U54C C68G	2.77e-05 ± 1.9e-05 s⁻¹
U46C C58U	2.18e-05 ± 1.3e-05 s⁻¹
U46C G59A	2.8e-05 ± 1.8e-05 s⁻¹
C50U C68A C71U	3.14e-05 ± 2.1e-05 s⁻¹
C50U G62U C68G	0.00042 ± 0.00027 s⁻¹
C50U U54A C70A	6.81e-05 ± 3.4e-05 s⁻¹
G51A G63U C70G	5.84e-05 ± 3.5e-05 s⁻¹
A53U C58U C68G C70A C71A	5.66e-05 ± 3.7e-05 s⁻¹
U54A C61U	1.95e-05 ± 1e-05 s⁻¹
U54A G59A C71A	2.47e-05 ± 2.3e-05 s⁻¹
U57C C70G	2.31e-05 ± 1.4e-05 s⁻¹
C58A A64G C68A	3.01e-05 ± 1.9e-05 s⁻¹
C58U A64U U69G	4.08e-05 ± 2.7e-05 s⁻¹
G59U U65G C67U	0.00291 ± 0.0025 s⁻¹
U65C C70G	1.95e-05 ± 1.6e-05 s⁻¹

Variants of: B1
Test: self-cleavage kobs at 10000 uM GlcN6P; higher = faster cleavage; RNA array
Conditions: with glucosamine-6-phosphate
Procedure, shortened: as §1

Variant	self-cleavage kobs at 10000 uM GlcN6P
A12U A52C C67A	2.29e-05 ± 1.9e-05 s⁻¹
C16A G41U	2.29e-05 ± 1.5e-05 s⁻¹
G29U C50G	2.64e-05 ± 1.4e-05 s⁻¹
U31A A33U	1.82e-05 ± 9.9e-06 s⁻¹
G32A C67G C70U	2.81e-05 ± 1.9e-05 s⁻¹
A42C G66U	1.34e-05 ± 8.3e-06 s⁻¹
G44A A52G	2.29e-05 ± 1.6e-05 s⁻¹
U45A U54C C68G	3.72e-05 ± 2.2e-05 s⁻¹
U57C C70G	1.58e-05 ± 1.5e-05 s⁻¹
A6U U65G	2.41e-05 ± 1.4e-05 s⁻¹
C8G U57A C70A	4.33e-05 ± 2.8e-05 s⁻¹
C8U G37U A48U C70G	2.45e-05 ± 2.3e-05 s⁻¹
G9U G29U C50G C58A G63C	2.43e-05 ± 2.4e-05 s⁻¹
C10A C34U G59U U69A	3.03e-05 ± 2.1e-05 s⁻¹
C10A C50U C67G	2.67e-05 ± 2.3e-05 s⁻¹
C10A C67U C68U	1.9e-05 ± 1.9e-05 s⁻¹
C10A U57A C68A	1.98e-05 ± 1.7e-05 s⁻¹
C10A U69C	1.68e-05 ± 1.5e-05 s⁻¹
C10G C11U C67G	2.2e-05 ± 1.8e-05 s⁻¹
C11A U49G C67G	2.16e-05 ± 1.4e-05 s⁻¹
C11G C34A U65G C70G	2.56e-05 ± 2.4e-05 s⁻¹
C11G C61G C68G	2.75e-05 ± 1.9e-05 s⁻¹
C11G U30C C58U C70A	2.13e-05 ± 1.7e-05 s⁻¹
A12C C68A	1.76e-05 ± 9.6e-06 s⁻¹
A12G U46G C58G G63U U69A	2.36e-05 ± 2.1e-05 s⁻¹

Variant	self-cleavage kobs at 10000 uM GlcN6P
A12U A36G	1.18e-05 ± 1e-05 s⁻¹
G13C G29U C71G	2.76e-05 ± 2.2e-05 s⁻¹
A14C G40C U55A	4.82e-05 ± 2.5e-05 s⁻¹
A14G C19A A20G G21A G60A	3.57e-05 ± 2.2e-05 s⁻¹
A14G G43U U46G	2.76e-05 ± 2.3e-05 s⁻¹
A14U A52G C71G	2.01e-05 ± 1.4e-05 s⁻¹
A14U G32C A53G C67U C71G	2.86e-05 ± 1.5e-05 s⁻¹
A14U G37C	2.38e-05 ± 1.5e-05 s⁻¹
A15G C61U	1.81e-05 ± 9.1e-06 s⁻¹
A15U G44C	2.04e-05 ± 1.2e-05 s⁻¹
G29A A42U	2.28e-05 ± 1.7e-05 s⁻¹
G29A C68G	1.54e-05 ± 1.2e-05 s⁻¹
G29U C50G A53G U55G C67G	4.98e-05 ± 2.8e-05 s⁻¹
U30A U31C C50G U56G C61G	2.61e-05 ± 1.7e-05 s⁻¹
U30A U57G	1.86e-05 ± 1.7e-05 s⁻¹
U30C C58A	1.34e-05 ± 1.2e-05 s⁻¹
U31G G32C U65G C71U	1.49e-05 ± 1.3e-05 s⁻¹
G32C U56C	1.28e-05 ± 8.7e-06 s⁻¹
G32U G41C	1.56e-05 ± 1.5e-05 s⁻¹
C34G C70G	1.97e-05 ± 1.5e-05 s⁻¹
G35C C50G G59A	2.74e-05 ± 1.9e-05 s⁻¹
A36C C58A U65A C68G	3.52e-05 ± 2e-05 s⁻¹
A36U C50G	0.000943 ± 0.00077 s⁻¹
A36U C68U	0.000902 ± 0.0005 s⁻¹
G37A A48G	2.06e-05 ± 1.5e-05 s⁻¹

Random excerpt: four entries already listed
Variant	self-cleavage kobs at 10000 uM GlcN6P
A6U U65G	2.41e-05 ± 1.4e-05 s⁻¹
C10A U57A C68A	1.98e-05 ± 1.7e-05 s⁻¹
C16A G41U	2.29e-05 ± 1.5e-05 s⁻¹
A15U G44C	2.04e-05 ± 1.2e-05 s⁻¹

As a short view, some entries already given:
Variant	self-cleavage kobs at 10000 uM GlcN6P
C34G C70G	1.97e-05 ± 1.5e-05 s⁻¹
G35C C50G G59A	2.74e-05 ± 1.9e-05 s⁻¹

Following part.

Variant	self-cleavage kobs at 10000 uM GlcN6P
G37C U45G	1.78e-05 ± 1.3e-05 s⁻¹
G38C C50U U69G C70G	3.45e-05 ± 2.4e-05 s⁻¹
G38U C70U C71G	2.85e-05 ± 1.6e-05 s⁻¹
A39U A42C C67G	3.52e-05 ± 2.2e-05 s⁻¹
G40A C67G	2.64e-05 ± 1.5e-05 s⁻¹
U45A C61G C71G	2.15e-05 ± 2e-05 s⁻¹
U45A C61U	2.03e-05 ± 1.9e-05 s⁻¹
U45C C58A	1.73e-05 ± 1.7e-05 s⁻¹
U45G C58U	2.07e-05 ± 1.9e-05 s⁻¹
A48C A53G C71G	1.56e-05 ± 1.3e-05 s⁻¹
A48G C71A	1.83e-05 ± 1e-05 s⁻¹
A48U A53C	2.05e-05 ± 1.2e-05 s⁻¹
U49A U54G	2.88e-05 ± 2.3e-05 s⁻¹
C50A U69G	1.89e-05 ± 1.1e-05 s⁻¹
C50G U54A	2e-05 ± 1.1e-05 s⁻¹
U54A C68A	1.69e-05 ± 1.2e-05 s⁻¹
U54C C61U C68G U69G	3.94e-05 ± 2.8e-05 s⁻¹
U56A G59U	2.08e-05 ± 1.4e-05 s⁻¹
U56C C71G	2.26e-05 ± 1.4e-05 s⁻¹
C58A C70G C71A	1.98e-05 ± 1.7e-05 s⁻¹
G59A A64G G66A	2.5e-05 ± 2.2e-05 s⁻¹
G59A U65G C67G	1.83e-05 ± 1.7e-05 s⁻¹
C61U A64G	2.05e-05 ± 1.3e-05 s⁻¹
